# Counter-ions that a name gives are not always drawn. At least one compound was matched to its structure with a doubt left.
# Experiment: Test for light stability, aqueous solution exposed to daylight (HPLC content)
# Assay type: physicochemical
# Conditions: Initial, Hydrochloride
# Procedure: The resulting aqueous solutions were stored at 25° C. for 4 weeks while being exposed to daylight. A measurement was made of the contents of the salts with resort to HPLC under the same conditions as in the chemical stability test.
structure (smiles),measurement,value
"CCOC(=O)C1=C(COCCN)NC(C)=C(C(=O)OC)C1c1ccccc1Cl (stereo not shown) [Hydrochloride, Amlodipine Hydrochloride]",Content (HPLC),99.0%

# From patent publication US6846931B2, “Organic acid salt of amlodipine” (CJ Corp, priority 2002, dated 2005)
